Data taken from article doi:10.1101/2022.07.06.498930.
These are yes or no findings as the source states them, for the method shown. In cells and extracts the contact can be indirect. Binding calls can cover weak binding; strength is not graded here. Sequences can lack the tags named with a protein.

Molecular target: YFP-LSM1 (Arabidopsis thaliana)
Experiment: co-IP

B1: PAT1 (Protein Associated with Topoisomerase II), HA fusion (protein, UniProt Q0WPK4 1-793)
chain: MDAFGIGSSLNQAPVTQDLKKFGDNSTGNTMFDASQYAFFGNDVVEEVELGGLEEEDEILSFTGIAEDFSFDKEEVGDSRLLSDVDDLASTFSKLNREPDVYSNTGPITDRRSSQNSLAAEWTHGEELPNWYGRQILDSDAIKDDKVWSAQPFSSLDRVEQRIPDRTKLYPEPQRQLHQDHNQQQFSSEPILVPKSSFVSYPPPGSISPDQRLGHPNIPYQSGGPQMGSPNFSPFPNLQPQLPSMHHGSPQHTGNRPQFRPALPLNNLPPAQWMNRQNMHPGDSSGIMNNAMLQQPPHQNGLMPPQMQGSQNRLPHPMQPPLGHMPGMQPQLFNSHLSRSSSSGNYDGMLGFGDLREVRPGSGHGNRQNVRFPQQGFDAGVQRRYPFRSKYMSAGEIENILRMQLVATHSNDPYVDDYYHQACLAKKSAGAKLKHHFCPNHLRDLQQRARSNNEPHAFLQVEALGRVPFSSIRRPRPLLEVDPPNSAKFGNAEHKPTDKPLDQEPMLAARVYIEDGLCLLLEVDDIDRFLEFNQLQDGGHQLKQRRQALLQSLAVSLQLGDPLAKNGQSQSLDDFLFLRVISLPKGRKLLIRYLQLIFPGSDLMRIVCMAIFRHLRSLFGVLSSDPDIIKTTNKLATVINLCIQNMELGPVSTCLAAVSCSSEQAPLRPLGSPVGDGASTVLKSILDRASELIRANNFNNAGIALWRASFNEFFNMLMRYCISKYDSIMQSLQLPPHFATEISEEAAKAIVREMPIELLRSSFPHIDEQQKRILMEFLKRSMLGSQKTEPVLS
binding: binds
